Test results published in paper PMC6262623.
Results are given in words; binding and its absence hold for the method and conditions named. In cells and extracts the contact can be indirect. A result given as binding can be weak or reduced; the word gives no strength. Sequences can lack the tags named with a protein.

Key:
[1] = target: N-terminal fragment of Elmo1; test: co-IP; 293T cells co-transfected, lysed after 2 days (50 mM Tris pH 7.6, 150 mM NaCl, 1% Triton X-100); lysates incubated with FLAG-conjugated agarose beads 2 h at 4 °C, five washes, immunoblotting
[2] = target: C-terminal fragment of Elmo1; test: as above

binding [1] | binding [2] | Binder
binds | binds | wild-type Ephexin4 (tag not told for the experiment) (protein, UniProt Q3U5C8 1-713) MSQRHSDSSLDEKLLEYRFHAELRLDANGNPIPGLPMVRSSLKARANAAFEPDASEPLPPPPSPEDEEPPRPIVLSTQSPAALKMGTQQLIPKSLAVASKAKTKSPARHQSFGAAVLSKEAARRNPQLFSAPSFSLDDMDMDMVTTGNLRRNLRNQSYRAAMKGPGPPSSKGDSVQLGPKLQALAEEAAQPPSRYPAKNKKTLGRKRAHKGSFKDDPQLYQEIRERGLNTSHESDDDILDEPSGPVGTQRADTTIVVKSYRPAQLTWSQLPEVLESGVLDTLSTEERKRQEAIFEILTSEFSYLHSLSILVTEFLQSRELRATMTQTEHHHLFSNILDVMSASQKFFEALEQRHKAQVCVEDISDILEDHAQHHFHPYIAYCSNEVYQQRTLQKLSNSNAAFRDVLKEIEKRPACGGLPMISFLILPMQRVTRLPLLTDTLCLKTQGHPERYKAASQALKAISKLVKQCNEGAHKMERTEQIYTLNMQLDFGKVKSLPLISASRWLLKRGELFLLEESSIFRKIASRPTCYLFLFNDVLVVTKKKSEESYLVQDYAQLDHVQVRKLEPSEPLLPGGSSRSSSVPYPFQVNLLHNSEGRQEQILLSSDSASDRARWITALTYKERQWQGITNKGELPQVEVTKAYFAKQADEITLQQADIVLVLQEEDGWLHGERLRDGETGWFPESFAHSITSRVAVEGNVRRMERLRVETDV
no binding | no binding | Ephexin4^E295A (tag not told for the experiment) (protein, UniProt Q3U5C8 1-713) MSQRHSDSSLDEKLLEYRFHAELRLDANGNPIPGLPMVRSSLKARANAAFEPDASEPLPPPPSPEDEEPPRPIVLSTQSPAALKMGTQQLIPKSLAVASKAKTKSPARHQSFGAAVLSKEAARRNPQLFSAPSFSLDDMDMDMVTTGNLRRNLRNQSYRAAMKGPGPPSSKGDSVQLGPKLQALAEEAAQPPSRYPAKNKKTLGRKRAHKGSFKDDPQLYQEIRERGLNTSHESDDDILDEPSGPVGTQRADTTIVVKSYRPAQLTWSQLPEVLESGVLDTLSTEERKRQEAIFAILTSEFSYLHSLSILVTEFLQSRELRATMTQTEHHHLFSNILDVMSASQKFFEALEQRHKAQVCVEDISDILEDHAQHHFHPYIAYCSNEVYQQRTLQKLSNSNAAFRDVLKEIEKRPACGGLPMISFLILPMQRVTRLPLLTDTLCLKTQGHPERYKAASQALKAISKLVKQCNEGAHKMERTEQIYTLNMQLDFGKVKSLPLISASRWLLKRGELFLLEESSIFRKIASRPTCYLFLFNDVLVVTKKKSEESYLVQDYAQLDHVQVRKLEPSEPLLPGGSSRSSSVPYPFQVNLLHNSEGRQEQILLSSDSASDRARWITALTYKERQWQGITNKGELPQVEVTKAYFAKQADEITLQQADIVLVLQEEDGWLHGERLRDGETGWFPESFAHSITSRVAVEGNVRRMERLRVETDV
